The values that follow come from patent US4871717 (dated 1989).

The nature of the data set: general procedure: Boc solid-phase peptide synthesis; Benzhydrylamine-polystyrene resin; diisopropylcarbodiimide. The note with it: whole synthesis, scale 0.5 mmole.

With MPA-Tyr-D-Trp-Lys-Val-Cys-Thr-NH2, the isolated mass is 129 mg.
